Data on 1 molecule can be found in publication doi:10.1101/684480.

Common to all, as to assay: co-IP
Assay [1] deals with kinase-dead BCR-ABL (K271H) (human).
The target of the next assay is BCR-ABL Y177F (human).
In assay [2] the target is BCR-ABL with deleted SH2 domain (human).
Assay [3] deals with BCR-ABL with deleted TK domain (human).
The target of assay [4] is BCR-ABL with deleted FABD domain (human).
Assay [5] addresses BCR-ABL with deleted SH3 domain (human).
The target of assay [6] is ΔSH3-SH2-TK-BCR-ABL (human).
For assay [7], the target named is BCR-ABL with deleted IDR (human).

No constants are given. Whether binding was seen depends on the method and setting. In cells and extracts the contact can be indirect. Binding calls can cover weak binding; strength is not graded here. Where a sequence is shown, tags or fusion partners need not be part of it.

B1: V5-tagged SHIP2 (enzyme, UniProt O15357 1-1258)
chain: MASACGAPGPGGALGSQAPSWYHRDLSRAAAEELLARAGRDGSFLVRDSESVAGAFALCVLYQKHVHTYRILPDGEDFLAVQTSQGVPVRRFQTLGELIGLYAQPNQGLVCALLLPVEGEREPDPPDDRDASDGEDEKPPLPPRSGSTSISAPTGPSSPLPAPETPTAPAAESAPNGLSTVSHDYLKGSYGLDLEAVRGGASHLPHLTRTLATSCRRLHSEVDKVLSGLEILSKVFDQQSSPMVTRLLQQQNLPQTGEQELESLVLKLSVLKDFLSGIQKKALKALQDMSSTAPPAPQPSTRKAKTIPVQAFEVKLDVTLGDLTKIGKSQKFTLSVDVEGGRLVLLRRQRDSQEDWTTFTHDRIRQLIKSQRVQNKLGVVFEKEKDRTQRKDFIFVSARKREAFCQLLQLMKNKHSKQDEPDMISVFIGTWNMGSVPPPKNVTSWFTSKGLGKTLDEVTVTIPHDIYVFGTQENSVGDREWLDLLRGGLKELTDLDYRPIAMQSLWNIKVAVLVKPEHENRISHVSTSSVKTGIANTLGNKGAVGVSFMFNGTSFGFVNCHLTSGNEKTARRNQNYLDILRLLSLGDRQLNAFDISLRFTHLFWFGDLNYRLDMDIQEILNYISRKEFEPLLRVDQLNLEREKHKVFLRFSEEEISFPPTYRYERGSRDTYAWHKQKPTGVRTNVPSWCDRILWKSYPETHIICNSYGCTDDIVTSDHSPVFGTFEVGVTSQFISKKGLSKTSDQAYIEFESIEAIVKTASRTKFFIEFYSTCLEEYKKSFENDAQSSDNINFLKVQWSSRQLPTLKPILADIEYLQDQHLLLTVKSMDGYESYGECVVALKSMIGSTAQQFLTFLSHRGEETGNIRGSMKVRVPTERLGTRERLYEWISIDKDEAGAKSKAPSVSRGSQEPRSGSRKPAFTEASCPLSRLFEEPEKPPPTGRPPAPPRAAPREEPLTPRLKPEGAPEPEGVAAPPPKNSFNNPAYYVLEGVPHQLLPPEPPSPARAPVPSATKNKVAITVPAPQLGHHRHPRVGEGSSSDEESGGTLPPPDFPPPPLPDSAIFLPPSLDPLPGPVVRGRGGAEARGPPPPKAHPRPPLPPGPSPASTFLGEVASGDDRSCSVLQMAKTLSEVDYAPAGPARSALLPGPLELQPPRGLPSDYGRPLSFPPPRIRESIQEDLAEEAPCLQGGRASGLGEAGMSAWLRAIGLERYEEGLVHNGWDDLEFLSDITEEDLEEAGVQDPAHKRLLLDTLQLSK
For the molecule B1, the binding entry in assay [1] was “binds”; with BCR-ABL Y177F (human), “binds”; in assay [2], “binds”; in assay [3] it was “binds weakly”; in assay [4] it was “binds”; in assay [5], “binds”. Moreover, the binding entry in assay [6] and in assay [7] was “binds” each time.
